The values that follow come from publication PMC3241690.

Chains of the proteins cited; added tags and fusions are not shown.
UniProt P70255: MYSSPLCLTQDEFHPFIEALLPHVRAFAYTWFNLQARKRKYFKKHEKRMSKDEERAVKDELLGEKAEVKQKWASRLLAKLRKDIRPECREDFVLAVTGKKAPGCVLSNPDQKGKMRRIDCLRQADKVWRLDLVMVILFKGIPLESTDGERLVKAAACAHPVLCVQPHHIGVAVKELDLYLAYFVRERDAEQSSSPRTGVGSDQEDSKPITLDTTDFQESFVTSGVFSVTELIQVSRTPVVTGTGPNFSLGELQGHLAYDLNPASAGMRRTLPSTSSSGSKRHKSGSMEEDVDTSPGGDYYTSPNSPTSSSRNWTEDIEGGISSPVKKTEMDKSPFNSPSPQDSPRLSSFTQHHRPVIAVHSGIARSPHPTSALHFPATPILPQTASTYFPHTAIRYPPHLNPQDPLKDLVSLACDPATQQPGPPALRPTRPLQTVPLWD
UniProt P84022: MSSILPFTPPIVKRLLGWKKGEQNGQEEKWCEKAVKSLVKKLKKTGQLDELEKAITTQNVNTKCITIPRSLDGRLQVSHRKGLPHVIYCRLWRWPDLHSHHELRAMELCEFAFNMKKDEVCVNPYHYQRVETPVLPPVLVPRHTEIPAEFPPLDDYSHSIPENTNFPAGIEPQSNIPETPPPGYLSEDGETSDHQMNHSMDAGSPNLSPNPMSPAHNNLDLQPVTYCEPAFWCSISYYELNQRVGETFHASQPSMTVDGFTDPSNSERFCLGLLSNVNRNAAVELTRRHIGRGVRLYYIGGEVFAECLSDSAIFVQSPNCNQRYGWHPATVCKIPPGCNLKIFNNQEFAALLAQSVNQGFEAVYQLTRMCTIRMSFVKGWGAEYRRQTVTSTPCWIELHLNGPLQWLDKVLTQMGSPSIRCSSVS
UniProt Q9CUN6: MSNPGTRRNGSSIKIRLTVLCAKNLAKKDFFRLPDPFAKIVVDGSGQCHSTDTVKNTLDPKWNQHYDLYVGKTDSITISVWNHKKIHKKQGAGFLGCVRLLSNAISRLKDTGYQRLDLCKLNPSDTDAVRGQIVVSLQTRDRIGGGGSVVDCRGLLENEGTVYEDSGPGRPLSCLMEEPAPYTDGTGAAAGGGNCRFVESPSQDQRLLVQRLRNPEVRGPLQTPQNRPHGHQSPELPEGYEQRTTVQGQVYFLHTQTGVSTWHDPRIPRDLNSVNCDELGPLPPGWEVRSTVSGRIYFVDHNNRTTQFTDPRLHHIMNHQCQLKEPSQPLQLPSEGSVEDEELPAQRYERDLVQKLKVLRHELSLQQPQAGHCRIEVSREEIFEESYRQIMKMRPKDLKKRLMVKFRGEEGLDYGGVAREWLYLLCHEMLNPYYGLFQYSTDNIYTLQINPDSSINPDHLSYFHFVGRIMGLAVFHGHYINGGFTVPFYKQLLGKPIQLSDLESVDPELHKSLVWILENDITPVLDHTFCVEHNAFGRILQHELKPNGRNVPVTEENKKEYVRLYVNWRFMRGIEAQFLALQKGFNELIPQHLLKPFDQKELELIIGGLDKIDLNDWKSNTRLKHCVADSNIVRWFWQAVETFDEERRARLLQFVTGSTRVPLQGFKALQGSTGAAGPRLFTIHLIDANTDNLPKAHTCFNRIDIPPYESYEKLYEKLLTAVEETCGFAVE
UniProt Q8BUN5: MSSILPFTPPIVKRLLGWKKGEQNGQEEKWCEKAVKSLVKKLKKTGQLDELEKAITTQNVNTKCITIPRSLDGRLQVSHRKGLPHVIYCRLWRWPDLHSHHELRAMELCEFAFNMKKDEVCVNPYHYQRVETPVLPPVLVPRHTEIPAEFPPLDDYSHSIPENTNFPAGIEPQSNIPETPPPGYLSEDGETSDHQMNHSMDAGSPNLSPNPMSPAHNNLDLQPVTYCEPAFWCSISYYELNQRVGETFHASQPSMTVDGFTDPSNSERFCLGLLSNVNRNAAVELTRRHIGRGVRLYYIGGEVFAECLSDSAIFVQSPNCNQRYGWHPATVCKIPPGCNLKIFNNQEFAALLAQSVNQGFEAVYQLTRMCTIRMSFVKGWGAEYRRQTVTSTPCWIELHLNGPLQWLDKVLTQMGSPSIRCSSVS
UniProt Q9HCE7: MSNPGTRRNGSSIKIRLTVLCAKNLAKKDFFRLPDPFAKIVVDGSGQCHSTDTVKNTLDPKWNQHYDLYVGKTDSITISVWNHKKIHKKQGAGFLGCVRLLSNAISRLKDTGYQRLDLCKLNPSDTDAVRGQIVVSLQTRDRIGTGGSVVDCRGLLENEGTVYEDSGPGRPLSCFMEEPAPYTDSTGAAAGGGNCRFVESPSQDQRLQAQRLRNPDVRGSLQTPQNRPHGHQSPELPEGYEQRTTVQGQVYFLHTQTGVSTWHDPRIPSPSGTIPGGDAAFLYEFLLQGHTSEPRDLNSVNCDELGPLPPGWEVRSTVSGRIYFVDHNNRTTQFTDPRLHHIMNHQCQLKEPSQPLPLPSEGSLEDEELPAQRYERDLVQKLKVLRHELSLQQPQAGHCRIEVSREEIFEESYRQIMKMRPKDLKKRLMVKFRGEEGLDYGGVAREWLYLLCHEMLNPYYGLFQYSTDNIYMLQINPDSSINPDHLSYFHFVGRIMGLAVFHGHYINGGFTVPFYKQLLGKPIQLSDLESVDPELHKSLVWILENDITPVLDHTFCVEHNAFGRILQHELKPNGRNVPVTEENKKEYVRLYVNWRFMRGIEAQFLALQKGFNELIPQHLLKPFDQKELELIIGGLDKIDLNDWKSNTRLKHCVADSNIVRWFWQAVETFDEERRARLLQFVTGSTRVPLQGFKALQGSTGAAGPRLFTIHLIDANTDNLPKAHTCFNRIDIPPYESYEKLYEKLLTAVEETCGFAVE
UniProt Q9HAU4: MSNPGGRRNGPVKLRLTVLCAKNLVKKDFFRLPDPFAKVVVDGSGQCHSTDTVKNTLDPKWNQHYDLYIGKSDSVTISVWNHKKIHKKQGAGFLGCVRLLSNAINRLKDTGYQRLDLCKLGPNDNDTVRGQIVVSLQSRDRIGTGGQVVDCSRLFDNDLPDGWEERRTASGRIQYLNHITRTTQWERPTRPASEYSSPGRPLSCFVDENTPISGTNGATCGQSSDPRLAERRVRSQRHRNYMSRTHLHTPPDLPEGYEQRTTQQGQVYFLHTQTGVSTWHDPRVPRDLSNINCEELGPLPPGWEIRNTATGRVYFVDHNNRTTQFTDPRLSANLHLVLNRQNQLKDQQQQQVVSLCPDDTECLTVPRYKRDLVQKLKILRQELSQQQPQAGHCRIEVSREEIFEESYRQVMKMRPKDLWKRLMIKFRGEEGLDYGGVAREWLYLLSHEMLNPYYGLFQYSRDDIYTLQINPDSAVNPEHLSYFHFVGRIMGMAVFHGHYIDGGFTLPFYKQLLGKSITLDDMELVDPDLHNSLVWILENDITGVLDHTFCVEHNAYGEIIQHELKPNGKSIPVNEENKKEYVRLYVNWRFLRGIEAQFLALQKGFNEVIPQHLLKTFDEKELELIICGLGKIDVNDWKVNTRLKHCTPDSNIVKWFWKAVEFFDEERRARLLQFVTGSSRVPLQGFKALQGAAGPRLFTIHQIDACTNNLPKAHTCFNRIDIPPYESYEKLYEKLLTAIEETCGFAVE

The target of assay [1] is HA-tagged NFI-C (nuclear factor I-C) (UniProt P70255). Kind of assay: co-IP; HEK293T co-transfected for 48 hr with HA-tagged NFI-C and a FLAG-tagged partner, with or without TGF-β1 (10 ng/ml, 1 hr); 500 µg precleared extract, anti-HA overnight at 4°C, Protein A/G beads; blot with anti-FLAG and anti-HA.
Assay [2] concerns the target Endogenous NFI-C (nuclear factor I-C) of MDPC-23 cells (mouse (endogenous in MDPC-23)) (UniProt P70255). Kind of assay: co-IP; endogenous proteins; MDPC-23 whole cell lysates, untreated or TGF-β1 (10 ng/ml, 1 hr), with or without U0126 (10 µM); also FGF, EGF, p38 and JNK inhibitors (data not shown); NFI-C immunoprecipitates blotted with anti-Smurf1 or anti-Smurf2.
Assay [3] shares this target. Kind of assay: co-IP; endogenous proteins; MDPC-23 cells with or without TGF-β1 (10 ng/ml) in the presence of MG132 (10 µM) for 1 hr; cytoplasmic and nuclear fractions; NFI-C immunoprecipitates blotted with anti-pSmad3.
Assay [4] addresses Phosphorylated HA-NFI-C (ERK-phosphorylated, from cells co-transfected with MEK-CA) (UniProt P70255). Description: pull-down; in vitro binding assay: HA-NFI-C from HEK293T (with MEK-CA) held by anti-HA on Protein A/G beads, with or without lambda protein phosphatase (30°C, 1 hr), incubated with HEK293T lysates expressing FLAG-tagged Smurf1 or Smurf2 at 4°C for 2 hr; blot; only the target purified.

These are yes or no findings as the source states them, for the method shown. Binding seen in cells or lysates may run through a third protein. Some results given as binding are weak or reduced against the parent protein; the word gives no strength.

Turning to “FLAG-tagged Smad3 (from UniProt P84022 1-425)”, the binding result in assay [1] was “binds”. Take “Endogenous Smurf1 of MDPC-23 cells (from UniProt Q9CUN6 1-731) (enzyme)”: the binding result in assay [2] is on record as “binds”. Take “Endogenous phosphorylated Smad3 (p-Smad3) of MDPC-23 cells (from UniProt Q8BUN5 1-425)”: the binding entry in assay [3] is “binds”. Regarding “FLAG-tagged Smurf1 (from UniProt Q9HCE7 1-757) (enzyme)”, the binding result in assay [1] and in assay [4] was “binds” in each case. As to “FLAG-tagged Smurf2 (from UniProt Q9HAU4 1-748) (enzyme)”, the binding entry in assay [1] and in assay [4] was “binds” throughout.
